These are yes or no findings as the source states them, for the method shown. Some results given as binding are weak or reduced against the parent protein; the word gives no strength.
What was measured:
[1] = molecular target: T1, NF-κB p65 subunit in nuclear extracts of RANKL-treated mouse RAW 264.7 cells (mouse), Q04207; assay: EMSA supershift assay, nuclear extracts of RANKL-treated RAW 264.7 cells; conditions: remark: other sources report otherwise
T1 chain: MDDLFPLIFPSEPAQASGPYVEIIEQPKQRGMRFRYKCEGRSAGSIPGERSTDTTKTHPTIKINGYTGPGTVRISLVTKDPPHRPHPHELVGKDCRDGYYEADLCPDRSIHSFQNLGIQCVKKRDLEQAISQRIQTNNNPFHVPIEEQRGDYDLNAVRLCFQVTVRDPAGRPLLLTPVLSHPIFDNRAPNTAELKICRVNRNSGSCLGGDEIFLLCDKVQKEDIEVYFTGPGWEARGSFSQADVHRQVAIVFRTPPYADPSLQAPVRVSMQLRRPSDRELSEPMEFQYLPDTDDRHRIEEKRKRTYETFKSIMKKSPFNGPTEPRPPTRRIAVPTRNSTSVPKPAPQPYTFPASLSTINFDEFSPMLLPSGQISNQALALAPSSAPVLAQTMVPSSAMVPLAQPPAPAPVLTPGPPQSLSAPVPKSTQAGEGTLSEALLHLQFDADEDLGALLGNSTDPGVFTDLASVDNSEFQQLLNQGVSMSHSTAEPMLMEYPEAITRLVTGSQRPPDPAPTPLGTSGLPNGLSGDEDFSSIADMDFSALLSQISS

[2] = molecular target: T1, NF-κB p65 subunit in nuclear extracts …; assay: EMSA supershift assay, nuclear extracts of RANKL-treated RAW 264.7 cells (FIG. 18C); conditions: remark: other sources report otherwise

binding [1]: binds
binding [2]: binds
B1: NF-κB p50 subunit in nuclear extracts of RANKL-treated mouse RAW 264.7 cells, P25799 1-431 (protein, UniProt P25799 1-431, looked up)
chain: MADDDPYGTGQMFHLNTALTHSIFNAELYSPEIPLSTDGPYLQILEQPKQRGFRFRYVCEGPSHGGLPGASSEKNKKSYPQVKICNYVGPAKVIVQLVTNGKNIHLHAHSLVGKHCEDGVCTVTAGPKDMVVGFANLGILHVTKKKVFETLEARMTEACIRGYNPGLLVHSDLAYLQAEGGGDRQLTDREKEIIRQAAVQQTKEMDLSVVRLMFTAFLPDSTGSFTRRLEPVVSDAIYDSKAPNASNLKIVRMDRTAGCVTGGEEIYLLCDKVQKDDIQIRFYEEEENGGVWEGFGDFSPTDVHRQFAIVFKTPKYKDVNITKPASVFVQLRRKSDLETSEPKPFLYYPEIKDKEEVQRKRQKLMPNFSDSFGGGSGAGAGGGGMFGSGGGGGSTGSPGPGYGYSNYGFPPYGGITFHPGVTKSNAGVTHG
